The test system of data set [1] is different-cell pairs of BEAS-2B, A549, H1299, H1975 without physical contact under a mutual headspace. In words: VOCs headspace analysis (ITEX GC-MS) of different-cell pair co-culture headspace groups (Format-3), bulk cell samples. Set-up: key to Category (VOC increased or decreased relative to the control): ↑: Increased; ↓: decreased; ↑*: <0.01; ↑**: <0.001. Conditions: for VOC level in headspace, area under curve (AUC) normalized by STD AUC: bulk 1 × 10^4 cell; for Category (VOC increased or decreased relative to the control): different-cell pair co-culture headspace (Format-3), averaged peak area (n = 3). It is filed as cell-based, human.

In data set [2] the test system is A549, H1299, H1975 human lung cancer lines and BEAS-2B normal cell line, each cultured alone. In words: VOCs headspace analysis (ITEX GC-MS) of mono-culture groups (Format-1), bulk cell samples 1×10^4 cells. Format: cell-based. Conditions: for VOC level in headspace, area under curve (AUC) normalized by STD AUC: bulk 1 × 10^4 cell.

Some results come without the dose or concentration used.

Regarding `CCC=C(CC)CC` [VOC29], the “VOC level in headspace, area under curve (AUC) normalized by STD AUC” value (“VOC level … (AUC) normalized by STD AUC” below) in data set [1] (A + B (BEAS-2B + A549)) was found to be 2.263; in data set [1] (A + C (BEAS-2B + H1299)), 1.367; in data set [1] (A + D (BEAS-2B + H1975)) it was 1.08; in data set [1] (B + C (A549 + H1299)) it was 0; in data set [1] (B + D (A549 + H1975)) it was 0; in data set [1] (C + D (H1299 + H1975)), 0. Also, the “VOC level … (AUC) normalized by STD AUC” value in data set [2] (A (BEAS-2B) mono-culture) was 7.01; in data set [2] (B (A549) mono-culture), 0; in data set [2] (C (H1299) mono-culture) it was 0; in data set [2] (D (H1975) mono-culture), 0.

On to `CCCCCCCCCCCCCC` [VOC7], for which the “VOC level … (AUC) normalized by STD AUC” value in data set [1] (A + B (BEAS-2B + A549)) was determined as 8.418; in data set [1] (A + C (BEAS-2B + H1299)), 9.815; in data set [1] (A + D (BEAS-2B + H1975)), 0; in data set [1] (B + C (A549 + H1299)), 6.131; in data set [1] (B + D (A549 + H1975)), 0; in data set [1] (C + D (H1299 + H1975)) it was 7.454. In addition, the “VOC level … (AUC) normalized by STD AUC” value in data set [2] (A (BEAS-2B) mono-culture) worked out at 0.977; in data set [2] (B (A549) mono-culture) it was 1.466; in data set [2] (C (H1299) mono-culture) it was 0; in data set [2] (D (H1975) mono-culture) it was 7.874.

Regarding `CCCCCCCCCCC` [VOC15], the “VOC level … (AUC) normalized by STD AUC” value came out at 4.086 in data set [1] (A + B (BEAS-2B + A549)); 0 in data set [1] (A + C (BEAS-2B + H1299)); 0 in data set [1] (A + D (BEAS-2B + H1975)); 0 in data set [1] (B + C (A549 + H1299)); 0 in data set [1] (B + D (A549 + H1975)); 0 in data set [1] (C + D (H1299 + H1975)). In addition, the “VOC level … (AUC) normalized by STD AUC” value in data set [2] (A (BEAS-2B) mono-culture) was 0; in data set [2] (B (A549) mono-culture) it was 1.529; in data set [2] (C (H1299) mono-culture), 0; in data set [2] (D (H1975) mono-culture) it was 0.

With `Cc1cc(C)nc(C)c1` [VOC90], the “VOC level … (AUC) normalized by STD AUC” value in data set [1] (A + B (BEAS-2B + A549)) is given as 0; in data set [1] (A + C (BEAS-2B + H1299)), 0.2737; in data set [1] (A + D (BEAS-2B + H1975)) it was 5.643; in data set [1] (B + C (A549 + H1299)), 2.014; in data set [1] (B + D (A549 + H1975)), 3.995; in data set [1] (C + D (H1299 + H1975)), 1.619. The “VOC level … (AUC) normalized by STD AUC” value in data set [2] (A (BEAS-2B) mono-culture) was determined as 0; in data set [2] (B (A549) mono-culture) it was 0; in data set [2] (C (H1299) mono-culture), 2.6707; in data set [2] (D (H1975) mono-culture), 5.566.

On to `C/C=C/C(C)C` [VOC80], for which the “VOC level … (AUC) normalized by STD AUC” value in data set [1] (A + B (BEAS-2B + A549)) stood at 0; in data set [1] (A + C (BEAS-2B + H1299)), 3.224; in data set [1] (A + D (BEAS-2B + H1975)) it was 0; in data set [1] (B + C (A549 + H1299)), 0.5519; in data set [1] (B + D (A549 + H1975)), 0; in data set [1] (C + D (H1299 + H1975)) it was 0. Also, the “VOC level … (AUC) normalized by STD AUC” value in data set [2] (A (BEAS-2B) mono-culture) was determined as 0; in data set [2] (B (A549) mono-culture), 0; in data set [2] (C (H1299) mono-culture) it was 3.9491; in data set [2] (D (H1975) mono-culture) it was 0.

Turning to `CCCCC(CC)CO` (stereo not shown) [VOC55], the “VOC level … (AUC) normalized by STD AUC” value was determined as 3.414 in data set [1] (A + B (BEAS-2B + A549)); 2.624 in data set [1] (A + C (BEAS-2B + H1299)); 0 in data set [1] (A + D (BEAS-2B + H1975)); 0 in data set [1] (B + C (A549 + H1299)); 0 in data set [1] (B + D (A549 + H1975)); 0 in data set [1] (C + D (H1299 + H1975)). Also, the “VOC level … (AUC) normalized by STD AUC” value is reported as 7.062 in data set [2] (A (BEAS-2B) mono-culture), 0 in data set [2] (B (A549) mono-culture), 0 in data set [2] (C (H1299) mono-culture) and 0 in data set [2] (D (H1975) mono-culture).

Turning to `CCC(C)C=O` (stereo not shown) [VOC1], the “VOC level … (AUC) normalized by STD AUC” value in data set [1] (A + B (BEAS-2B + A549)), in data set [1] (A + C (BEAS-2B + H1299)), in data set [1] (A + D (BEAS-2B + H1975)), in data set [1] (B + C (A549 + H1299)), in data set [1] (B + D (A549 + H1975)) and in data set [1] (C + D (H1299 + H1975)) was 0 in each case. For the same compound, the “VOC level … (AUC) normalized by STD AUC” value in data set [2] (A (BEAS-2B) mono-culture), in data set [2] (B (A549) mono-culture), in data set [2] (C (H1299) mono-culture) and in data set [2] (D (H1975) mono-culture) was 0 each time.

As for `CCCCCCC(C)=O` [VOC96], the “VOC level … (AUC) normalized by STD AUC” value in data set [1] (A + B (BEAS-2B + A549)) is given as 0; in data set [1] (A + C (BEAS-2B + H1299)) it was 5.283; in data set [1] (A + D (BEAS-2B + H1975)) it was 0; in data set [1] (B + C (A549 + H1299)), 1.514; in data set [1] (B + D (A549 + H1975)) it was 0; in data set [1] (C + D (H1299 + H1975)) it was 2.778. For the same compound, the “VOC level … (AUC) normalized by STD AUC” value in data set [2] (A (BEAS-2B) mono-culture) was determined as 0; in data set [2] (B (A549) mono-culture), 0; in data set [2] (C (H1299) mono-culture) it was 7.2483; in data set [2] (D (H1975) mono-culture), 0.

In the case of `CCCCC(CC)CO` (stereo not shown) [1-Hexanol, 2-ethyl-], the “Category (VOC increased or decreased relative to the control)” value in data set [1] (24 h) is given as “↑* (↑*: <0.01)”; in data set [1] (48 h), “↓”; in data set [2] (mono-culture groups (Format-1), 24 h incubation, averaged peak area (n = 3)), “↑* (↑*: <0.01)”.

For the compound `CC1(c2ccccc2)CNC1` [VOC73], the “VOC level … (AUC) normalized by STD AUC” value in data set [1] (A + B (BEAS-2B + A549)) is 0; in data set [1] (A + C (BEAS-2B + H1299)), 6.872; in data set [1] (A + D (BEAS-2B + H1975)), 0; in data set [1] (B + C (A549 + H1299)), 3.685; in data set [1] (B + D (A549 + H1975)) it was 0; in data set [1] (C + D (H1299 + H1975)), 2.033. For the same compound, the “VOC level … (AUC) normalized by STD AUC” value worked out at 0 in data set [2] (A (BEAS-2B) mono-culture), 0 in data set [2] (B (A549) mono-culture), 8.0569 in data set [2] (C (H1299) mono-culture) and 0 in data set [2] (D (H1975) mono-culture).

With `C=CCOCCCC` [VOC53], the “VOC level … (AUC) normalized by STD AUC” value in data set [1] (A + B (BEAS-2B + A549)) is 2.506; in data set [1] (A + C (BEAS-2B + H1299)), 0; in data set [1] (A + D (BEAS-2B + H1975)), 0; in data set [1] (B + C (A549 + H1299)) it was 0; in data set [1] (B + D (A549 + H1975)), 0; in data set [1] (C + D (H1299 + H1975)), 0.5618. For the same compound, the “VOC level … (AUC) normalized by STD AUC” value amounted to 7.074 in data set [2] (A (BEAS-2B) mono-culture), 0 in data set [2] (B (A549) mono-culture), 0 in data set [2] (C (H1299) mono-culture) and 5.846 in data set [2] (D (H1975) mono-culture).

As for `CC(=O)CCOC(C)C` [VOC56], the “VOC level … (AUC) normalized by STD AUC” value turned out to be 0 in data set [1] (A + B (BEAS-2B + A549)); 0 in data set [1] (A + C (BEAS-2B + H1299)); 3.587 in data set [1] (A + D (BEAS-2B + H1975)); 0 in data set [1] (B + C (A549 + H1299)); 1.635 in data set [1] (B + D (A549 + H1975)); 0 in data set [1] (C + D (H1299 + H1975)). Besides, the “VOC level … (AUC) normalized by STD AUC” value in data set [2] (A (BEAS-2B) mono-culture) came out at 0; in data set [2] (B (A549) mono-culture) it was 0; in data set [2] (C (H1299) mono-culture), 0; in data set [2] (D (H1975) mono-culture), 6.66.

`CCOCC` [VOC85]: the “VOC level … (AUC) normalized by STD AUC” value was 3.629 in data set [1] (A + B (BEAS-2B + A549)); 0 in data set [1] (A + C (BEAS-2B + H1299)); 0 in data set [1] (A + D (BEAS-2B + H1975)); 2.303 in data set [1] (B + C (A549 + H1299)); 7.176 in data set [1] (B + D (A549 + H1975)); 5.431 in data set [1] (C + D (H1299 + H1975)). The “VOC level … (AUC) normalized by STD AUC” value in data set [2] (A (BEAS-2B) mono-culture) is reported as 0; in data set [2] (B (A549) mono-culture) it was 4.149; in data set [2] (C (H1299) mono-culture), 0; in data set [2] (D (H1975) mono-culture), 5.735.

Take `CC(C)CCCC(C)CCC(C)C` (stereo not shown) [VOC69]: the “VOC level … (AUC) normalized by STD AUC” value was 1.042 in data set [1] (A + B (BEAS-2B + A549)); 0 in data set [1] (A + C (BEAS-2B + H1299)); 0 in data set [1] (A + D (BEAS-2B + H1975)); 0 in data set [1] (B + C (A549 + H1299)); 0 in data set [1] (B + D (A549 + H1975)); 0 in data set [1] (C + D (H1299 + H1975)). For the same compound, the “VOC level … (AUC) normalized by STD AUC” value is 2.016 in data set [2] (A (BEAS-2B) mono-culture), 1.322 in data set [2] (B (A549) mono-culture), 3.717 in data set [2] (C (H1299) mono-culture) and 0 in data set [2] (D (H1975) mono-culture).

Source of the values: patent US20260079169A1, “VOLATILE ORGANIC COMPOUNDS AS MARKERS FOR CELLULAR COMMUNICATION” (Technion Research and Development Foundation Limited, priority 2020, published 2026).
